From publication PMC5746259
These are yes or no findings as the source states them, for the method shown. Binding seen in cells or lysates may run through a third protein. Some results given as binding are weak or reduced against the parent protein; the word gives no strength.

Target: T1, serum response factor (rat (endogenous in PAC1)) (UniProt D3ZHH8)
T1 sequence: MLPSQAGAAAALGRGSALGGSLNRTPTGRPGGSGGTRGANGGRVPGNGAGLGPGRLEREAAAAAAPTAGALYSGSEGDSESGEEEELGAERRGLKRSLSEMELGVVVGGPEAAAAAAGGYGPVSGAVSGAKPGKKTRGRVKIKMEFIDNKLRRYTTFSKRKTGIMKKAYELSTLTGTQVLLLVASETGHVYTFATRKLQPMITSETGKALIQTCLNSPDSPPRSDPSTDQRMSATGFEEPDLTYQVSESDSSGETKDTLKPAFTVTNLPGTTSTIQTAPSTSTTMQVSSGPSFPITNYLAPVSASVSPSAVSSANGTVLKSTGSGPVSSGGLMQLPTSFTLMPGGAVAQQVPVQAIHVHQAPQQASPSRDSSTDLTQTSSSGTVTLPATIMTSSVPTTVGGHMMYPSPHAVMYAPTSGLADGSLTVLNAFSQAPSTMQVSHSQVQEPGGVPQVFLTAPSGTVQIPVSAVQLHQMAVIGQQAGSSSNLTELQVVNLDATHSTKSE
Assay: co-IP; immunoprecipitation with SRF antibody from nuclear protein extract (NPE) of PAC1 cells; 400 μg protein, 4 μg antibody, overnight at 4°C; western blot with SM22 antibody

binding: binds
B1: SM22α (protein, UniProt P31232 1-201)
chain: MANKGPSYGMSREVQSKIEKKYDEELEERLVEWIVMQCGPDVGRPDRGRLGFQVWLKNGVILSKLVNSLYPEGSKPVKVPENPPSMVFKQMEQVAQFLKAAEDYGVTKTDMFQTVDLFEGKDMAAVQRTVMALGSLAVTKNDGHYRGDPNWFMKKAQEHKREFTDSQLQEGKHVIGLQMGSNRGASQAGMTGYGRPRQIIS
